The target of experiment [1] is T1, Arabidopsis AGO1, split-YFP fusion for BiFC (Arabidopsis thaliana) (UniProt O04379).
T1 sequence: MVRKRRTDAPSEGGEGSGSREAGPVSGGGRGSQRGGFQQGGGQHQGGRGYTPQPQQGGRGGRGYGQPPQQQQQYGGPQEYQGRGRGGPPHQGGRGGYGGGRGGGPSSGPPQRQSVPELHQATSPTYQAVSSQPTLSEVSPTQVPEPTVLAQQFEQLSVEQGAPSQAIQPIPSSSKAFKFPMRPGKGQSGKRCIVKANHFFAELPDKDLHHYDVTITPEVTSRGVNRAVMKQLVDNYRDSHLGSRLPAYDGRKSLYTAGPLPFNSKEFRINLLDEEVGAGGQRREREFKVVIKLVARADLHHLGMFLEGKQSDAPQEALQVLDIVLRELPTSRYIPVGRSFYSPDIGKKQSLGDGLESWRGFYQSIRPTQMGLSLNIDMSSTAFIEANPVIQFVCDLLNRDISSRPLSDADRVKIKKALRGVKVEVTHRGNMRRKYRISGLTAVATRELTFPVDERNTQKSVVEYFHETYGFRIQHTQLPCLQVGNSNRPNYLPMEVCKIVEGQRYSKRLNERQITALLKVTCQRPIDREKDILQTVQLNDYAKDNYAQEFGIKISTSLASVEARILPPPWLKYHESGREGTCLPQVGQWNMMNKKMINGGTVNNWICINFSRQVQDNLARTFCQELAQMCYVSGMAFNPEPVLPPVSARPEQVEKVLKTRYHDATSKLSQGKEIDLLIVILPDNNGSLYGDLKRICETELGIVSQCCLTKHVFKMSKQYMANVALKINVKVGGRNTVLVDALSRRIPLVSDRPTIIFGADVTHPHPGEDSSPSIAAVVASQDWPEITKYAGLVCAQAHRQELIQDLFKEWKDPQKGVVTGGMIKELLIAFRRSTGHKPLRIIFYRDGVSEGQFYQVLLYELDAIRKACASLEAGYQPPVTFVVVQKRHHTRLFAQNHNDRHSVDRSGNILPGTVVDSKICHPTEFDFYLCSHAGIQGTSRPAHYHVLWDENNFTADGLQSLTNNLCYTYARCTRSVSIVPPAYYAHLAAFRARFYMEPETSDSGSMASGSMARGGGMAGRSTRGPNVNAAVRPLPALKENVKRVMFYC
The experiment is described as follows: split reporter.

In experiment [2] the target is T2, CFP-AGO1 (Arabidopsis thaliana) (UniProt O04379).
T2 sequence: T1 sequence
Kind of experiment: FRET or BRET. Background: BRET reads energy transfer from a luciferase to a nearby fluorophore.

No constants are given. Whether binding was seen depends on the method and setting. In cells and extracts the contact can be indirect. A result given as binding can be weak or reduced; the word gives no strength. Sequences can lack the tags named with a protein.

Regarding “HopT1-1 (Hrp outer protein T1-1), split-YFP fusion for BiFC (from UniProt Q88BP7)”, the binding entry in experiment [1] is recorded as “binds”.
“HopT1-1m3 (triple GW>GF mutant of HopT1-1), split-YFP fusion for BiFC (Pseudomonas syringae pv. tomato DC3000)”: in experiment [1], the binding entry is given as “no binding”.
In the case of “HopT1-1-YFP (Pseudomonas syringae pv. tomato DC3000)”, the binding result in experiment [2] is recorded as “binds”.
On to “HopT1-1m3-YFP (Pseudomonas syringae pv. tomato DC3000)”, for which the binding result in experiment [2] is given as “no binding”.

Source of the values: paper doi:10.1101/215590.
